Reference: the supplement of paper PMC5407854, “Inhibitor of ppGalNAc-T3-mediated O-glycosylation blocks cancer cell invasiveness and lowers FGF23 levels” (eLife, 2017)
This is one part of the list. Small differences around the control level are noise.

What follows are molecules tested on ppGalNAc-T3 sensor (assay: T3 sensor activation Q score (MG/GFP ratio z-score vs DMSO controls) (SD units); higher = more sensor activation (inhibition of ppGalNAc-T3 glycosylation)). Details: HEK293 sensor cells; 10 µM; 6 h.
Description: (§1)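 Cells were treated with compound at 10 uM for 6 h, then MG/GFP ratio was read by flow cytometry (10,000 cells per well, duplicate wells). Q = (R - R_neg)/SD_neg relative to DMSO vehicle controls; the signal rises when the glycosyltransferase is inhibited.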

Question: Which “T3 sensor activation Q score” value does the source give for `Cc1ccc(C(=O)c2ccccc2C(=O)O)c(C)c1` here?
Answer: Its value is 0.58.

Question: For `OC(CN1CCOCC1)CN(c1ccccc1)c1ccccc1` (stereo not drawn), which “T3 sensor activation Q score” value is on record?
Answer: Its value is 1.75.

Question: How did the “T3 sensor activation Q score” value turn out when `Cc1c(Cl)cccc1NC(=O)CCc1ccccc1` was run?
Answer: The value was -0.185.

Question: How did the “T3 sensor activation Q score” value turn out when `Cc1ccc(OCC(=O)N2CCN(c3ccccc3)CC2)cc1` was run?
Answer: The value was 0.75.

Question: With `CC(C)=CC(=O)CC(O)(c1ccccc1)C(F)(F)C(F)F` (stereo not drawn) as the molecule, how does the “T3 sensor activation Q score” value read?
Answer: Its value is 0.315.

Question: Which “T3 sensor activation Q score” value does the source give for `CC(C)c1ccc(NC(=O)c2ccc(Cl)cc2)cc1` here?
Answer: Its value is -0.33.

Question: `Cc1ccccc1N1CCN(Cc2sccc2C)CC1` was tested. Which “T3 sensor activation Q score” value did it give?
Answer: The value was 0.24.

Question: `CC1C=CC(C)[C@H](C(=O)O)[C@H]1C(=O)O` (stereo partly drawn) was tested. Which “T3 sensor activation Q score” value did it give?
Answer: Its value is 0.365.

Question: For `CC(=O)Nc1ccc(-c2nc3ccc(C)cc3s2)cc1`, which “T3 sensor activation Q score” value is on record?
Answer: The value was 0.365.

Question: How did the “T3 sensor activation Q score” value turn out when `O=C(O)CCCNC1=NCCC1` was run?
Answer: Its value is 0.37.

Question: Which “T3 sensor activation Q score” value does the source give for `O=C(Nc1cccc(F)c1)C12CC3CC(CC(C3)C1)C2` here?
Answer: The value was -0.825.

Question: For `O=C(O)c1cc(C2CC2)nc2ccccc12`, which “T3 sensor activation Q score” value is on record?
Answer: The value was -0.875.

Question: How did the “T3 sensor activation Q score” value turn out when `CC(Cc1c[nH]c2ccccc12)NC(N)=O` (stereo not drawn) was run?
Answer: Its value is 0.1.

Question: With `COc1nc(Nc2ccc(I)cc2)nc(OC)n1` as the molecule, how does the “T3 sensor activation Q score” value read?
Answer: The value was -0.03.

Question: How did the “T3 sensor activation Q score” value turn out when `CCn1c(=N)n(CCO)c2ccccc21` was run?
Answer: Its value is 0.35.

Question: Which “T3 sensor activation Q score” value does the source give for `CN(C)CCC(=O)c1cccs1` here?
Answer: The value was -0.46.

Question: For `CCC(Sc1nc(=O)cc(N)n1-c1ccccc1)C(=O)O` (stereo not drawn), which “T3 sensor activation Q score” value is on record?
Answer: Its value is 0.03.

Question: How did the “T3 sensor activation Q score” value turn out when `Nc1nc(-c2ccccc2)cc(-c2ccccc2)n1` was run?
Answer: Its value is 0.65.

Question: Which “T3 sensor activation Q score” value does the source give for `CC(C)CC1CC2C(O1)c1ccccc1OC2(C)C` (stereo not drawn) here?
Answer: The value was 0.29.

Question: With `CCN(CC)S(=O)(=O)c1ccc(Cl)c(C(=O)O)c1` as the molecule, how does the “T3 sensor activation Q score” value read?
Answer: Its value is -0.81.

Question: For `CCNCC(O)CN1CCC(C)CC1` (stereo not drawn), which “T3 sensor activation Q score” value is on record?
Answer: Its value is 0.155.

Question: `Cc1ccc(NC(=O)Nc2ccc(Cl)cc2)cc1` was tested. Which “T3 sensor activation Q score” value did it give?
Answer: The value was 1.51.

Question: With `OC(COc1ccc2c(c1)CCC2)CN1CCN(c2ccccc2)CC1` (stereo not drawn) as the molecule, how does the “T3 sensor activation Q score” value read?
Answer: The value was 0.495.

Question: Which “T3 sensor activation Q score” value does the source give for `c1ccc(Cc2nc3ccccc3o2)cc1` here?
Answer: The value was 2.65.

Question: `O=c1[nH]n(-c2ccc(Cl)cc2)c(=O)c(Cl)c1Cl` was tested. Which “T3 sensor activation Q score” value did it give?
Answer: The value was -0.16.

Question: `CCN(CCN(C)C)Cc1ccc(C(C)C)cc1` was tested. Which “T3 sensor activation Q score” value did it give?
Answer: Its value is 0.33.

Question: For `CC1CC(Nc2ccccc2)c2ccccc2N1C(=O)c1cccs1` (stereo not drawn), which “T3 sensor activation Q score” value is on record?
Answer: Its value is -1.34.

Question: How did the “T3 sensor activation Q score” value turn out when `COc1ccc(OC)c(C(=O)c2ccccc2)c1` was run?
Answer: Its value is 0.355.

Question: `CCOc1ccc(CN(C)C2CCN(C)CC2)cc1` was tested. Which “T3 sensor activation Q score” value did it give?
Answer: The value was 0.16.

Question: For `O=C(O)CNC(=O)c1ccc(Cl)cc1`, which “T3 sensor activation Q score” value is on record?
Answer: The value was -0.37.

Question: With `Cc1ccc(C(=O)NCCCc2ccccc2)cc1C` as the molecule, how does the “T3 sensor activation Q score” value read?
Answer: The value was 0.645.

Question: For `COc1ccc(CN2CCCN(C)CC2)cc1C`, which “T3 sensor activation Q score” value is on record?
Answer: The value was 0.275.

Question: With `CN1CCN(C(=O)c2cccc(Cl)c2)CC1` as the molecule, how does the “T3 sensor activation Q score” value read?
Answer: Its value is -0.04.

Question: `COc1ccc(C2NC(=O)C(=O)C2=C(O)c2ccccc2)cc1` (stereo not drawn) was tested. Which “T3 sensor activation Q score” value did it give?
Answer: Its value is -0.5.

Question: `CN(C)c1ccc(-c2ccncc2)cc1` was tested. Which “T3 sensor activation Q score” value did it give?
Answer: Its value is -0.025.

Question: For `O=C(Nc1ccccc1)Nc1ccc(F)c(Cl)c1`, which “T3 sensor activation Q score” value is on record?
Answer: The value was 0.7.

Question: For `Cc1ccsc1CN1CCN(c2cccc(C)c2C)CC1`, which “T3 sensor activation Q score” value is on record?
Answer: Its value is -0.6.

Question: For `CN1CCN(C(=O)Nc2ccccc2)CC1`, which “T3 sensor activation Q score” value is on record?
Answer: The value was 0.425.

Question: With `NC(CC(O)c1ccc([N+](=O)[O-])cc1)C(Cl)(Cl)Cl` (stereo not drawn) as the molecule, how does the “T3 sensor activation Q score” value read?
Answer: The value was -0.405.

These molecules were tested on ppGalNAc-T2 sensor (assay: T2 sensor activation Q score (MG/GFP ratio z-score vs DMSO controls) (SD units); higher = more sensor activation (inhibition of ppGalNAc-T2 glycosylation)). Details: HEK293 sensor cells; 10 µM; 6 h.
Description: as §1

Question: With `Cc1ccc(C(=O)c2ccccc2C(=O)O)c(C)c1` as the molecule, how does the “T2 sensor activation Q score” value read?
Answer: Its value is -0.08.

Question: How did the “T2 sensor activation Q score” value turn out when `OC(CN1CCOCC1)CN(c1ccccc1)c1ccccc1` (stereo not drawn) was run?
Answer: Its value is 2.87.

Question: `Cc1c(Cl)cccc1NC(=O)CCc1ccccc1` was tested. Which “T2 sensor activation Q score” value did it give?
Answer: Its value is -0.97.

Question: `Cc1ccc(OCC(=O)N2CCN(c3ccccc3)CC2)cc1` was tested. Which “T2 sensor activation Q score” value did it give?
Answer: Its value is 0.46.

Question: Which “T2 sensor activation Q score” value does the source give for `CC(C)=CC(=O)CC(O)(c1ccccc1)C(F)(F)C(F)F` (stereo not drawn) here?
Answer: Its value is 0.42.

Question: Which “T2 sensor activation Q score” value does the source give for `CC(C)c1ccc(NC(=O)c2ccc(Cl)cc2)cc1` here?
Answer: The value was -0.32.

Question: For `Cc1ccccc1N1CCN(Cc2sccc2C)CC1`, which “T2 sensor activation Q score” value is on record?
Answer: Its value is -0.08.

Question: For `CC1C=CC(C)[C@H](C(=O)O)[C@H]1C(=O)O` (stereo partly drawn), which “T2 sensor activation Q score” value is on record?
Answer: The value was -0.42.

Question: Which “T2 sensor activation Q score” value does the source give for `CC(=O)Nc1ccc(-c2nc3ccc(C)cc3s2)cc1` here?
Answer: Its value is -0.85.

Question: For `O=C(O)CCCNC1=NCCC1`, which “T2 sensor activation Q score” value is on record?
Answer: The value was 0.185.

Question: For `O=C(Nc1cccc(F)c1)C12CC3CC(CC(C3)C1)C2`, which “T2 sensor activation Q score” value is on record?
Answer: The value was 0.27.

Question: Which “T2 sensor activation Q score” value does the source give for `O=C(O)c1cc(C2CC2)nc2ccccc12` here?
Answer: Its value is -0.85.

Question: For `CC(Cc1c[nH]c2ccccc12)NC(N)=O` (stereo not drawn), which “T2 sensor activation Q score” value is on record?
Answer: Its value is -1.04.

Question: For `COc1nc(Nc2ccc(I)cc2)nc(OC)n1`, which “T2 sensor activation Q score” value is on record?
Answer: The value was 0.505.

Question: Which “T2 sensor activation Q score” value does the source give for `CCn1c(=N)n(CCO)c2ccccc21` here?
Answer: Its value is -0.155.

Question: With `CN(C)CCC(=O)c1cccs1` as the molecule, how does the “T2 sensor activation Q score” value read?
Answer: Its value is -0.985.

Question: How did the “T2 sensor activation Q score” value turn out when `CCC(Sc1nc(=O)cc(N)n1-c1ccccc1)C(=O)O` (stereo not drawn) was run?
Answer: Its value is 0.185.

Question: With `Nc1nc(-c2ccccc2)cc(-c2ccccc2)n1` as the molecule, how does the “T2 sensor activation Q score” value read?
Answer: Its value is -0.795.

Question: For `CC(C)CC1CC2C(O1)c1ccccc1OC2(C)C` (stereo not drawn), which “T2 sensor activation Q score” value is on record?
Answer: Its value is 0.005.

Question: Which “T2 sensor activation Q score” value does the source give for `CCN(CC)S(=O)(=O)c1ccc(Cl)c(C(=O)O)c1` here?
Answer: Its value is -0.835.

Question: `CCNCC(O)CN1CCC(C)CC1` (stereo not drawn) was tested. Which “T2 sensor activation Q score” value did it give?
Answer: Its value is 0.035.

Question: With `Cc1ccc(NC(=O)Nc2ccc(Cl)cc2)cc1` as the molecule, how does the “T2 sensor activation Q score” value read?
Answer: Its value is 0.69.

Question: With `OC(COc1ccc2c(c1)CCC2)CN1CCN(c2ccccc2)CC1` (stereo not drawn) as the molecule, how does the “T2 sensor activation Q score” value read?
Answer: The value was -0.265.

Question: With `c1ccc(Cc2nc3ccccc3o2)cc1` as the molecule, how does the “T2 sensor activation Q score” value read?
Answer: The value was 1.1.

Question: How did the “T2 sensor activation Q score” value turn out when `O=c1[nH]n(-c2ccc(Cl)cc2)c(=O)c(Cl)c1Cl` was run?
Answer: The value was 1.25.

Question: How did the “T2 sensor activation Q score” value turn out when `CCN(CCN(C)C)Cc1ccc(C(C)C)cc1` was run?
Answer: The value was -0.505.

Question: For `CC1CC(Nc2ccccc2)c2ccccc2N1C(=O)c1cccs1` (stereo not drawn), which “T2 sensor activation Q score” value is on record?
Answer: Its value is -1.54.

Question: With `COc1ccc(OC)c(C(=O)c2ccccc2)c1` as the molecule, how does the “T2 sensor activation Q score” value read?
Answer: Its value is 0.145.

Question: With `CCOc1ccc(CN(C)C2CCN(C)CC2)cc1` as the molecule, how does the “T2 sensor activation Q score” value read?
Answer: The value was 0.28.

Question: Which “T2 sensor activation Q score” value does the source give for `O=C(O)CNC(=O)c1ccc(Cl)cc1` here?
Answer: The value was -0.125.

Question: With `Cc1ccc(C(=O)NCCCc2ccccc2)cc1C` as the molecule, how does the “T2 sensor activation Q score” value read?
Answer: The value was 0.025.

Question: With `COc1ccc(CN2CCCN(C)CC2)cc1C` as the molecule, how does the “T2 sensor activation Q score” value read?
Answer: The value was 0.375.

Question: How did the “T2 sensor activation Q score” value turn out when `CN1CCN(C(=O)c2cccc(Cl)c2)CC1` was run?
Answer: The value was -0.965.

Question: `COc1ccc(C2NC(=O)C(=O)C2=C(O)c2ccccc2)cc1` (stereo not drawn) was tested. Which “T2 sensor activation Q score” value did it give?
Answer: The value was 0.135.

Question: How did the “T2 sensor activation Q score” value turn out when `CN(C)c1ccc(-c2ccncc2)cc1` was run?
Answer: Its value is -0.835.

Question: How did the “T2 sensor activation Q score” value turn out when `O=C(Nc1ccccc1)Nc1ccc(F)c(Cl)c1` was run?
Answer: The value was -0.69.

Question: With `Cc1ccsc1CN1CCN(c2cccc(C)c2C)CC1` as the molecule, how does the “T2 sensor activation Q score” value read?
Answer: Its value is -0.37.

Question: `CN1CCN(C(=O)Nc2ccccc2)CC1` was tested. Which “T2 sensor activation Q score” value did it give?
Answer: The value was -0.72.

Question: `NC(CC(O)c1ccc([N+](=O)[O-])cc1)C(Cl)(Cl)Cl` (stereo not drawn) was tested. Which “T2 sensor activation Q score” value did it give?
Answer: Its value is 1.06.
